Data taken from the supplement of paper PMC12067093, “Discovery and optimisation of a covalent ligand for TRIM25 and its application to targeted protein ubiquitination” (Chemical Science, 2025).
Some of the results follow.

Amino acid sequences for entries named in this document (tags omitted). A change or cut given only in a name is not applied to a line headed by its entry.
UniProt Q9H2Y7: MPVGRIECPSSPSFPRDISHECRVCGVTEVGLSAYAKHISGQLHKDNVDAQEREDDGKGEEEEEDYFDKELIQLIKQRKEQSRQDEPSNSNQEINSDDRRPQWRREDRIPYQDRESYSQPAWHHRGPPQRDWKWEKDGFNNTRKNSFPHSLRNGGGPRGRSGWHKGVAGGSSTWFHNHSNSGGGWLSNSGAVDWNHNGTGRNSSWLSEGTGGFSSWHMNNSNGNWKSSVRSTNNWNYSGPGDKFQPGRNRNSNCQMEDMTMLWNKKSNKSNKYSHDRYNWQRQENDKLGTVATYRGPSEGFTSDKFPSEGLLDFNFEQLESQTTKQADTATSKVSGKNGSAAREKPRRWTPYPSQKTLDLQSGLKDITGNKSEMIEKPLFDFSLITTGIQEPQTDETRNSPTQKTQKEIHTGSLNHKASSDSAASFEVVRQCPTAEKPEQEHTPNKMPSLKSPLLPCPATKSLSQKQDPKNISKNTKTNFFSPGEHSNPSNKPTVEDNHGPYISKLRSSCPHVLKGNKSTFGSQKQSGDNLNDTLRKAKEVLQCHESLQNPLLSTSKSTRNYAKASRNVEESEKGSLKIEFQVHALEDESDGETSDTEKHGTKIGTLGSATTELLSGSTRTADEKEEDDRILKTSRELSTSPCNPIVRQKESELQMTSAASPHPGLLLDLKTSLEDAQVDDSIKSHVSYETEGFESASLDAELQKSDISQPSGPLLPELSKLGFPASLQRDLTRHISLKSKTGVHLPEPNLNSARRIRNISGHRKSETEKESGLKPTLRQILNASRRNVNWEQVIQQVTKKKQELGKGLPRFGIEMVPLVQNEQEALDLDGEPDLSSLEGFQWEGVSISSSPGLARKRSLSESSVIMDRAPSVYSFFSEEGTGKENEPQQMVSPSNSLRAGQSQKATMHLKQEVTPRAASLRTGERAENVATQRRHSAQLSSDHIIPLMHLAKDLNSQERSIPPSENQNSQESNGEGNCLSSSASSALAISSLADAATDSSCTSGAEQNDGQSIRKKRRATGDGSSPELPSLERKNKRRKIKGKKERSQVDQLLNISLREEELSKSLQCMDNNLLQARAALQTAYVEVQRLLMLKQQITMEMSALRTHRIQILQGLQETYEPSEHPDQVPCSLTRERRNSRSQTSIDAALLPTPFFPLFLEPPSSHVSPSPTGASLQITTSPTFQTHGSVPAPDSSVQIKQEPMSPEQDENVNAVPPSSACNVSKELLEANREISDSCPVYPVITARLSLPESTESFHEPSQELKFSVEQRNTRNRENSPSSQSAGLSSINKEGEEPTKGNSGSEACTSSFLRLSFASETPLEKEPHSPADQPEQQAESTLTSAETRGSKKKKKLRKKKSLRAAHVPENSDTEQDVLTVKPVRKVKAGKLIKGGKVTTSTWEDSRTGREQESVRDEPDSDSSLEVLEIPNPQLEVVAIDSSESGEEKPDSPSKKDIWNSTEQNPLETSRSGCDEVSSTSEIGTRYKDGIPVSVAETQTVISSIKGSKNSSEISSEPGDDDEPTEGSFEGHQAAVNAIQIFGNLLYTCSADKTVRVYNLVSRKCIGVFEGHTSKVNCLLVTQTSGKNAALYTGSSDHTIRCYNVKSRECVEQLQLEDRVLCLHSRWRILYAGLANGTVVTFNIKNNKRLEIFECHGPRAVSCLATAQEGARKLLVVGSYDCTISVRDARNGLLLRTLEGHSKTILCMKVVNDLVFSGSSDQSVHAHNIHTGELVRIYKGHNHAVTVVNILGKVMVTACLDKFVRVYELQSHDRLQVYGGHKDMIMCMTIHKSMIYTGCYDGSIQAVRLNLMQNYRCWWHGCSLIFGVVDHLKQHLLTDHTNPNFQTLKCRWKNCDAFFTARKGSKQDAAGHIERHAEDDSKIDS
UniProt Q5VZL5: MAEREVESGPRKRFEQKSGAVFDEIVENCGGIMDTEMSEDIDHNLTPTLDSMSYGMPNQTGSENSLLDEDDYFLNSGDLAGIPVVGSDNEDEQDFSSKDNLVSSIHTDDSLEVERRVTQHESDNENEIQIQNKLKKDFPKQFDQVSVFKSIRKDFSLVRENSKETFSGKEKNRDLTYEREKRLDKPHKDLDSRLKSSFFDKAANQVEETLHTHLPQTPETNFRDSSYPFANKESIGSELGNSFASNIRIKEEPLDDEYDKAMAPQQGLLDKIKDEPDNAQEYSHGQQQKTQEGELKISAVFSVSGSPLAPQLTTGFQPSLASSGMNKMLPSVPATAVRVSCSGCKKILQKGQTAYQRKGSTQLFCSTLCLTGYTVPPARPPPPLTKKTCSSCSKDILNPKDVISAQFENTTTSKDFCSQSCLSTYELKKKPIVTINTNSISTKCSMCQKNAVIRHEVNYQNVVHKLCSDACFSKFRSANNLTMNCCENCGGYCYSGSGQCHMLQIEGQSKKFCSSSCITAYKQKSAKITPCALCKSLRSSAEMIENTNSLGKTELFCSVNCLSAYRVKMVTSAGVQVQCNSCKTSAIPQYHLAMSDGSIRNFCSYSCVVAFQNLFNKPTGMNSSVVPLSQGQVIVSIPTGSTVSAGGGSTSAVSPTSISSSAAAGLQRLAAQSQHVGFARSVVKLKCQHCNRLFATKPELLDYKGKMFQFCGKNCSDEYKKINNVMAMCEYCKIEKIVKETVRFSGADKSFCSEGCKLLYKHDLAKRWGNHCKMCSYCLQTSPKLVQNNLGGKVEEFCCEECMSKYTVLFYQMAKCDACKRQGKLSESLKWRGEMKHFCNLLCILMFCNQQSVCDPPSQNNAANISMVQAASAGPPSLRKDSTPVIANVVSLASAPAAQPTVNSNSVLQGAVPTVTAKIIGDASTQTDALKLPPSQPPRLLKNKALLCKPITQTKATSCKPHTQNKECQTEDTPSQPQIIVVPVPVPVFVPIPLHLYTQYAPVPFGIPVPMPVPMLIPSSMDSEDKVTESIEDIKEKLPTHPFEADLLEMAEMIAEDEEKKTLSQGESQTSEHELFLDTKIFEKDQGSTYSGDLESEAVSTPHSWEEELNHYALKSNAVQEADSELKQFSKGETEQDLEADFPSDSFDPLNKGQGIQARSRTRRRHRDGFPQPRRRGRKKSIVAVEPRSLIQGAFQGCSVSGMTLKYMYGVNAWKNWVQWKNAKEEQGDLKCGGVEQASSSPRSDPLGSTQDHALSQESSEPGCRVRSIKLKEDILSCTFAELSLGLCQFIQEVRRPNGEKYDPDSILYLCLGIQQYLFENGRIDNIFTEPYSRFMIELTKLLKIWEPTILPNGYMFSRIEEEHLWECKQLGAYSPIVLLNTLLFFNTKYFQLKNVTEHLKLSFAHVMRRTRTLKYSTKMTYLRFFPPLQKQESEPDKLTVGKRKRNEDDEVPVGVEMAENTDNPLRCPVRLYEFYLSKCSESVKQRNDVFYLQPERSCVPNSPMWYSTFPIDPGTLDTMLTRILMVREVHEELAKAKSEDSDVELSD
UniProt Q9Y3S2: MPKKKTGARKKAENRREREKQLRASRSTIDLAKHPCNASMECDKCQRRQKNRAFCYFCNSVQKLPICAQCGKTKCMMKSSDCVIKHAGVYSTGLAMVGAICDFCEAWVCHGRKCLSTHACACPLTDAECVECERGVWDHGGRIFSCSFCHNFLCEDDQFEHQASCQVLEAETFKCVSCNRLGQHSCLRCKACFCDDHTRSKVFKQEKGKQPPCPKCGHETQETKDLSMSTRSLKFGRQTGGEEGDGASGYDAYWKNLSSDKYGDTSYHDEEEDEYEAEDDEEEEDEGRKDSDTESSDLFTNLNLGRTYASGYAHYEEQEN
UniProt Q96ME7: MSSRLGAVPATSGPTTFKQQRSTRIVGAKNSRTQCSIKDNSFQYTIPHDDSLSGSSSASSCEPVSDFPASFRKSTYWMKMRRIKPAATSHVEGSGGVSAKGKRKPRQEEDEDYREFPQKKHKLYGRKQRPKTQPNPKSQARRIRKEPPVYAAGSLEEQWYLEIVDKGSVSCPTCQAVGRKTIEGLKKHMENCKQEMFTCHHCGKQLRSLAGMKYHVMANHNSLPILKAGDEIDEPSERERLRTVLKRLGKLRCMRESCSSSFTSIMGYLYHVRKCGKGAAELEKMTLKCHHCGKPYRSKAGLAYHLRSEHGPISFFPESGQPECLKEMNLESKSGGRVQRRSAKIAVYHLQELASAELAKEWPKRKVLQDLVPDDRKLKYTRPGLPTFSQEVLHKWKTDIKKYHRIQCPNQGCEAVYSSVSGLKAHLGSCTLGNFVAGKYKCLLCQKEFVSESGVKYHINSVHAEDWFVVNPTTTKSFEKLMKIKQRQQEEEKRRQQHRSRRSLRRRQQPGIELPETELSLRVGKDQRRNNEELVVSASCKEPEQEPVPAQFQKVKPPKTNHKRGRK
UniProt Q8TF39: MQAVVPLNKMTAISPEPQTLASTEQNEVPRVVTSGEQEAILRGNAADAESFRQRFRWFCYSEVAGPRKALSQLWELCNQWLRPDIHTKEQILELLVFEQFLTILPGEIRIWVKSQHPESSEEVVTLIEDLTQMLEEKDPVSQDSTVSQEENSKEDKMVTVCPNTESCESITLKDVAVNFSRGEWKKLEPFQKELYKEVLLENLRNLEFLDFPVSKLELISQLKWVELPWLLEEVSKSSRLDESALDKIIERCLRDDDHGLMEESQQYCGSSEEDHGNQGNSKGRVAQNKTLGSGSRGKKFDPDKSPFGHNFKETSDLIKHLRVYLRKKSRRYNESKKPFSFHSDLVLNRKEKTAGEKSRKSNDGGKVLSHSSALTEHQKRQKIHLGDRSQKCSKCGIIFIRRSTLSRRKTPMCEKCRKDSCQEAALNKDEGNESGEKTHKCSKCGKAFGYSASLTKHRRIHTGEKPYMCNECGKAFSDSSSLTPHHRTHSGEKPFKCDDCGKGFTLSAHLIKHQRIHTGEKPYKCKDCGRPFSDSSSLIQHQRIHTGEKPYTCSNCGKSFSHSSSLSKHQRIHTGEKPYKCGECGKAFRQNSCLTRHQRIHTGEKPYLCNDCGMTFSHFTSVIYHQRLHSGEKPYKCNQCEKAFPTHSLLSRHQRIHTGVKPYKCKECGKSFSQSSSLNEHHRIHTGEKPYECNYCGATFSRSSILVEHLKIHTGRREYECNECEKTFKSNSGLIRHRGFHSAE
UniProt Q92618: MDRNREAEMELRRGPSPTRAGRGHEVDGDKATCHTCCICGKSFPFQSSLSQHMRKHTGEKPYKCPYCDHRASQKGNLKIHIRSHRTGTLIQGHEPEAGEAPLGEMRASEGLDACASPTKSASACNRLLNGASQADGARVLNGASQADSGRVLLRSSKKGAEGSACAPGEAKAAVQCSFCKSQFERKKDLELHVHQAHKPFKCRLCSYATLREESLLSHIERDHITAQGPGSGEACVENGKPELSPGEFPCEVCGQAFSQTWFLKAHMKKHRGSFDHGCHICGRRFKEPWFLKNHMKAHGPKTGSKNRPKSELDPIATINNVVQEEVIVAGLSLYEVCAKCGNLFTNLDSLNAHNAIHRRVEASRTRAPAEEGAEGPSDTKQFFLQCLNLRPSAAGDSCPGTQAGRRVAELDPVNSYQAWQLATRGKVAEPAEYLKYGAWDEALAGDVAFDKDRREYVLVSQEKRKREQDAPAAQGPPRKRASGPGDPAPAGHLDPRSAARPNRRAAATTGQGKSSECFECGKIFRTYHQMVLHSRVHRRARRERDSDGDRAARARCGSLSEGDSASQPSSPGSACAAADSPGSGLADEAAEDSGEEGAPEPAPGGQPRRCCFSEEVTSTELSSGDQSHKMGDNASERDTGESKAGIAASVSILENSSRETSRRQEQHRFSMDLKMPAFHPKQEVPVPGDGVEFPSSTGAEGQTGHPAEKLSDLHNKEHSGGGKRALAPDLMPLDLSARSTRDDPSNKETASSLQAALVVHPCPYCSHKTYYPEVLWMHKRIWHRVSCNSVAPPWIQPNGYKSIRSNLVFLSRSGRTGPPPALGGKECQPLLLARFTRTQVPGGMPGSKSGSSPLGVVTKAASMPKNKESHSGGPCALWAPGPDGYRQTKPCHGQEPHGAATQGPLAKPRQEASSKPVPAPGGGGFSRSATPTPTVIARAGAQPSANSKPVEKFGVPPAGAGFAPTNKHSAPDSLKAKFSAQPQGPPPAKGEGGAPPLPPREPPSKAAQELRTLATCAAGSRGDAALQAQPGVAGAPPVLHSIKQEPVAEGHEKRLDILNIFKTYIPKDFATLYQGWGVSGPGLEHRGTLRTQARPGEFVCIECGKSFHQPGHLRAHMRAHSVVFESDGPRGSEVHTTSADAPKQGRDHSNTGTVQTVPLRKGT
UniProt Q8N8Y5: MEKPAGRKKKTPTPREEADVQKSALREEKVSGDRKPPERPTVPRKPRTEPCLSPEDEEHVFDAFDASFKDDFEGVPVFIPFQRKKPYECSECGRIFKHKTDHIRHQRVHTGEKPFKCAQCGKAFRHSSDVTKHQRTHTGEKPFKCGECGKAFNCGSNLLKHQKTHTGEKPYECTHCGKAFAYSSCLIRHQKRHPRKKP

Compound: CC1Cc2ccccc2N1C(=O)C1CCCN(C1)C(=O)CCl (mixture of isomers) [TRIM25 ligand 11 (diastereomer mixture)]
Experiment: probe-labelled cysteine peptide fold change vs DMSO (competition) (log2 fold change); higher = less target engagement (more negative = stronger competition)
Conditions: THP-1, incubation time: 4 h
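Further: competitive chemoproteomic profiling in live THP-1 cells with an iodoacetamide desthiobiotin (IA-DTB) probe, comparing probe-labelled peptide intensities in compound-treated cells against DMSO-treated controls.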

| Target | probe-labelled cysteine peptide fold change (10 µM) | probe-labelled cysteine peptide fold change (50 µM) |
| --- | --- | --- |
| ZMYM3_Q14202_311+314_MTCAHCR (UniProt Q14202) | -0.216 | -0.187 |
| ZNF687_Q8N1G0_566_IEVTCNHCAR (UniProt Q8N1G0) | 0.0232 | 0.00439 |
| ZNF408_Q9H9D4_383_HAFVHTGHKPFLCTECGK (UniProt Q9H9D4) | 0.107 | 0.293 |
| ZFPM1_Q8IX07_147_QAEPSPALTLLLVDEACWLR (UniProt Q8IX07) | -0.097 | 0.238 |
| ZNF106_Q9H2Y7_22_DISHECR (UniProt Q9H2Y7) | 0.339 | 0.153 |
| ZMYM4_Q5VZL5_1264_SDPLGSTQDHALSQESSEPGCR (UniProt Q5VZL5) | 0.125 | -0.184 |
| ZNF330_Q9Y3S2_67+70_LPICAQCGK (UniProt Q9Y3S2) | -0.0921 | -0.0418 |
| ZNF512_Q96ME7_258_ESCSSSFTSIMGYLYHVR (UniProt Q96ME7) | 0.0956 | -0.094 |
| ZNF512_Q96ME7_171_GSVSCPTCQAVGR (UniProt Q96ME7) | -0.000345 | -0.0111 |
| ZNF483_Q8TF39_392_IHLGDRSQKCSK (UniProt Q8TF39) | 0.384 | 0.299 |
| ZNF195_O14628_195_DWESLDECK (UniProt O14628) | -0.189 | -0.231 |
| ZNF292_O60281_1909_VNKPFVCQNQGCNYSAMTK (UniProt O60281) | -0.227 | -0.237 |
| ZFYVE16_Q7Z3T8_863_QPGVEGLCSK (UniProt Q7Z3T8) | -0.128 | -0.174 |
| ZNF280D_Q6N043_449_NLLCPFCLK (UniProt Q6N043) | -0.143 | -0.0986 |
| ZNF512_Q96ME7_192_HMENCK (UniProt Q96ME7) | -0.0596 | -0.0157 |
| ZNF516_Q92618_827_ECQPLLLAR (UniProt Q92618) | -0.0146 | 0.161 |

Some values from the entries so far:
Entry for ZNF512_Q96ME7_192_HMENCK (UniProt Q96ME7) under probe-labelled cysteine peptide fold change (50 µM): -0.0157
Entry for ZNF483_Q8TF39_392_IHLGDRSQKCSK (UniProt Q8TF39) under probe-labelled cysteine peptide fold change (10 µM): 0.384

(continued)

| Target | probe-labelled cysteine peptide fold change (10 µM) | probe-labelled cysteine peptide fold change (50 µM) |
| --- | --- | --- |
| ZNF579_Q8NAF0_74_LSHSGLRPHACPLCPK (UniProt Q8NAF0) | 0.113 | 0.269 |
| ZNF326_Q5BKZ1_314_MAFTCSFCK (UniProt Q5BKZ1) | 0.0214 | 0.044 |
| ZNF224_Q9NZL3_132_EGDFPCQTEAGLSVIHTR (UniProt Q9NZL3) | 0.246 | -0.206 |
| ZNF598_Q86UK7_247_CSTEQFTHAFR (UniProt Q86UK7) | 0.0211 | 0.0987 |
| ZNF646_O15015_1193_GCQTEASSERPFSCEVCGR (UniProt O15015) | -0.214 | -0.0689 |
| ZNF592_Q92610_265_ELGTCSSVPPR (UniProt Q92610) | 0.00311 | 0.0487 |
| ZNF106_Q9H2Y7_1620_VLCLHSR (UniProt Q9H2Y7) | 0.00393 | 0.119 |
| ZNF143_P52747_274_SHTGDRPYQCEHAGCGK (UniProt P52747) | 0.0334 | 0.0995 |
| ZMIZ2_Q8NF64_471_CYHHEDR (UniProt Q8NF64) | 0.0683 | 0.117 |
| ZNF217_O75362_93_HVLMQHRPTLCEPAVLR (UniProt O75362) | 0.0289 | -0.0425 |
| ZNF330_Q9Y3S2_120+122_CLSTHACACPLTDAECVECER (UniProt Q9Y3S2) | 0.358 | -0.17 |
| ZNF622_Q969S3_69+72_GSATYCTVCSK (UniProt Q969S3) | 0.0869 | 0.123 |
| ZFP41_Q8N8Y5_154_AFNCGSNLLK (UniProt Q8N8Y5) | -0.095 | -0.149 |
| ZMYM4_Q5VZL5_690_CQHCNR (UniProt Q5VZL5) | 0.455 | 0.332 |
| ZFPL1_O95159_24_VNVCEHCLVANHAK (UniProt O95159) | 0.0491 | -0.0641 |
| ZNF516_Q92618_165_KGAEGSACAPGEAK (UniProt Q92618) | -0.0814 | -0.0975 |
